Data reported in patent EP2157088A1, “INDICYANINE DYES AND THE DERIVATIVES THEREOF FOR ANALYSING BIOLOGICAL MICROMOLECULES” (UCHREZHDENIE ROSSIISKOI AKADEMII NAUK INSTITUT …, priority 2007, dated 2008).

Assay: Sensitivity of record of dye-labeled oligonucleotides in hydrogel cells of a biochip (portable fluorescent analyzer, 655 nm / 690 nm, 40 mW)
Details: semiconductor laser 655 nm / 690 nm

Structure (SMILES) | sensitivity of record (lower threshold of sensitivity) [mol]
CC1(C)C(=CC=CC=CC2=[N+](CCCCS(=O)(=O)[O-])c3ccc(CCC(=O)O)cc3C2(C)C)N(CCCCS(=O)(=O)[O-])c2ccccc21.[Na+] [B5, N,N'-disulfobutyl-5-carboxyethyl-3,3,3',3'-tetramethylindodicarbocyanine, sodium salt] | 5e-18
CC1(C)C(C=CC=CC=C2N(CCCCS(=O)(=O)O)c3ccccc3C2(C)CCCCC(=O)O)=[N+](CCCCS(=O)(=O)[O-])c2ccccc21 (centres unmarked) [A10, N,N'-di(4-sulfobutyl)-3-(4-carboxybutyl)-3,3',3'-trimethylindodicarbocyanine, sodium salt] | 3e-18

Counter-ions that a name gives are not always drawn.
